Data reported in patent US20260191925A2, “TISSUE OCCLUDING AGENT COMPRISING AN IEIKIEIKIEIKI PEPTIDE” (3-D Matrix, Ltd., priority 2008, published 2026).

tested on: rabbit hepatic incision; assay: Rabbit hepatic transection model (Example 9); assay type: in vivo; conditions: 1% solution applied on hepatic incision
Procedure: The rabbits were subcutaneously administered (3 mg/kg) Celactar 2% injection (2.0 g content as xylazine in 100 mL, product of Bayer Ltd.), and then ketamine (50 mg content as ketamine in 1 mL, product of Fuji Chemical Industries, Ltd.) was intravenously administered (10 mg/kg) for anesthesia.
The rabbits were laparotomized by median section and the hepatic left lobes were exposed and sharply transected with a scalpel to about 1 cm to induce hemorrhage.
After confirming exudative hemorrhage from the incision, the blood was removed as much as possible with gauze and the hepatic incision was treated with aqueous peptide solution.
The gelled aqueous peptide solution was removed 1 minute after treatment using physiological saline, and the presence of any hemorrhage from the hepatic incision was visually confirmed.

| Substance | gelling on hemorrhage wound surface |
| --- | --- |
| 1% IEIK9 aqueous peptide solution: 1% aqueous peptide solution, peptide sequence IEIK9 (SEQ ID NO: 4) (IEIKIEIKI; 1% aqueous solution; designed peptide; SITE 1 MOD_RES - …ON) | Absolutely no gelling |
| Ac-(IEIK)3I-CONH2 [1% IEIK13 aqueous peptide solution] | gelled after applying |
| Ac-(KLDL)3-CONH2 (KLDLKLDLKLDL; N-acetyl, C-amide; 1% aqueous solution; designed peptide; SITE 1 MOD_RES - …ON; SITE 12 Amidated residue) [1% KLD aqueous peptide solution] | gelled after applying |
